No constants are given. Whether binding was seen depends on the method and setting. For part of these data: Binding calls can cover weak binding; strength is not graded here. Tags and fused reporters may be left off the sequences shown.
What was measured:
Assay in all cases: two-hybrid; Matchmaker GAL4 system, BD fusions in pAS2-1 and AD fusions in pGADT7, S. cerevisiae PJ69-4A; growth on SD-L,W,A and colour on SD-L,W with X-gal, 30 °C, 48 h
[1] = molecular target: full-length Gpl1 (Y2H fusion) (S. pombe) (UniProt Q9HE07)
[2] = molecular target: Gpl1(M), middle region of Gpl1 (111-259 aa) (Y2H fusion) (S. pombe) (UniProt Q9HE07)
[3] = molecular target: Wdr83 (Y2H fusion) (S. pombe)

Protein sequences, listed by entry. Tags and fused reporters are not part of them. Lines headed by an entry give the natural chain unless they say otherwise; changes in a name come on top.
UniProt Q9HE07: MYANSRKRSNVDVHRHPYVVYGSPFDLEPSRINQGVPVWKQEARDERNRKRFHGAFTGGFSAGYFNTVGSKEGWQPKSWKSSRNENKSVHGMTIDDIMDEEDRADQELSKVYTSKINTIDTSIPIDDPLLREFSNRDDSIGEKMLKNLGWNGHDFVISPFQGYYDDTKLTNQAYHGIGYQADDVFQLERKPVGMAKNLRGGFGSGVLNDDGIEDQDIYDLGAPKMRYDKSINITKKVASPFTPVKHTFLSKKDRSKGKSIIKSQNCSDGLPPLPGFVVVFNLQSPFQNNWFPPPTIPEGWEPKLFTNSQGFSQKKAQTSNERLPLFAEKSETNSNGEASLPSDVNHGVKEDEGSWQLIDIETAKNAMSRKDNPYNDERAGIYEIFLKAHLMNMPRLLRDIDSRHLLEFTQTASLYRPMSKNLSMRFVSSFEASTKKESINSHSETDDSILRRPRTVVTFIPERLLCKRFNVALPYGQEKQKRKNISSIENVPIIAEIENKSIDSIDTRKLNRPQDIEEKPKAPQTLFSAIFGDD

B1: Gih35 (Y2H fusion) (protein, UniProt Q9HE06 1-647)
chain: MPNEFISQSLSTLTNTPLNIQKKLLPITKYRNQLLYAVEQNQITIVLGHTGCGKTTQIPQFLYEAGWASQNGIIGCTQPRRLVAKSVSERVSLELNSPPGSLCGYSIQFDHNVSEKTKIKYMTDGILLNEIFFDPLLERYSIVILDEVHERTLSTDLLLGVLKRILEKRNDFRLVLSSASVDANKLSQFFGQDKVCTMSIEGKLFPVETLFLQKPTENYVDSAIETVININSTYPPGDILVFLSGRKEIEYCIKKIEDSLIHASEDCQTLVPLPLHAGLTVDEQMRVFNIYDGDFRKVIFSTNIAETSITIDGIVYVVDSGFNKQRIYNPYTRTSKLINVPISKSSAIQRSGRAGRTMRGKVFRLYTEKAYSLMKEEFEADILNCDMSPLVLFLKGLGLKNILQFPFFVRPPTVHLMAALEDLYLLGVLDESGNLTDPLGIQISNSFLDANISKALLTSNQFGCTHEILSIASILTAGEVFYNPTSSSKNDAFVAHSSFFANEGDIITALNVFESFVGNKKDLQWCRKNYLNYQTLRQALDIRTHLVRFLNKFSIPTAQRLPSSDCSKILKCLLDGFVRNVAHLQNDGSYKTIGGKQVWLDSSSVLHEKKTPWIMYSSAVESETQIFVKNISKIESFWLDKYYKREK
binding [1]: binds
binding [2]: binds
binding [3]: no binding
